From the supplement of paper PMC12067093, “Discovery and optimisation of a covalent ligand for TRIM25 and its application to targeted protein ubiquitination” (Chemical Science, 2025)
Some of the results follow.

By UniProt entry, the sequences of proteins in these tests, tags left out. Where a name states a change or a piece, a line headed by the entry shows the natural chain unless it says otherwise.
UniProt Q8NF50: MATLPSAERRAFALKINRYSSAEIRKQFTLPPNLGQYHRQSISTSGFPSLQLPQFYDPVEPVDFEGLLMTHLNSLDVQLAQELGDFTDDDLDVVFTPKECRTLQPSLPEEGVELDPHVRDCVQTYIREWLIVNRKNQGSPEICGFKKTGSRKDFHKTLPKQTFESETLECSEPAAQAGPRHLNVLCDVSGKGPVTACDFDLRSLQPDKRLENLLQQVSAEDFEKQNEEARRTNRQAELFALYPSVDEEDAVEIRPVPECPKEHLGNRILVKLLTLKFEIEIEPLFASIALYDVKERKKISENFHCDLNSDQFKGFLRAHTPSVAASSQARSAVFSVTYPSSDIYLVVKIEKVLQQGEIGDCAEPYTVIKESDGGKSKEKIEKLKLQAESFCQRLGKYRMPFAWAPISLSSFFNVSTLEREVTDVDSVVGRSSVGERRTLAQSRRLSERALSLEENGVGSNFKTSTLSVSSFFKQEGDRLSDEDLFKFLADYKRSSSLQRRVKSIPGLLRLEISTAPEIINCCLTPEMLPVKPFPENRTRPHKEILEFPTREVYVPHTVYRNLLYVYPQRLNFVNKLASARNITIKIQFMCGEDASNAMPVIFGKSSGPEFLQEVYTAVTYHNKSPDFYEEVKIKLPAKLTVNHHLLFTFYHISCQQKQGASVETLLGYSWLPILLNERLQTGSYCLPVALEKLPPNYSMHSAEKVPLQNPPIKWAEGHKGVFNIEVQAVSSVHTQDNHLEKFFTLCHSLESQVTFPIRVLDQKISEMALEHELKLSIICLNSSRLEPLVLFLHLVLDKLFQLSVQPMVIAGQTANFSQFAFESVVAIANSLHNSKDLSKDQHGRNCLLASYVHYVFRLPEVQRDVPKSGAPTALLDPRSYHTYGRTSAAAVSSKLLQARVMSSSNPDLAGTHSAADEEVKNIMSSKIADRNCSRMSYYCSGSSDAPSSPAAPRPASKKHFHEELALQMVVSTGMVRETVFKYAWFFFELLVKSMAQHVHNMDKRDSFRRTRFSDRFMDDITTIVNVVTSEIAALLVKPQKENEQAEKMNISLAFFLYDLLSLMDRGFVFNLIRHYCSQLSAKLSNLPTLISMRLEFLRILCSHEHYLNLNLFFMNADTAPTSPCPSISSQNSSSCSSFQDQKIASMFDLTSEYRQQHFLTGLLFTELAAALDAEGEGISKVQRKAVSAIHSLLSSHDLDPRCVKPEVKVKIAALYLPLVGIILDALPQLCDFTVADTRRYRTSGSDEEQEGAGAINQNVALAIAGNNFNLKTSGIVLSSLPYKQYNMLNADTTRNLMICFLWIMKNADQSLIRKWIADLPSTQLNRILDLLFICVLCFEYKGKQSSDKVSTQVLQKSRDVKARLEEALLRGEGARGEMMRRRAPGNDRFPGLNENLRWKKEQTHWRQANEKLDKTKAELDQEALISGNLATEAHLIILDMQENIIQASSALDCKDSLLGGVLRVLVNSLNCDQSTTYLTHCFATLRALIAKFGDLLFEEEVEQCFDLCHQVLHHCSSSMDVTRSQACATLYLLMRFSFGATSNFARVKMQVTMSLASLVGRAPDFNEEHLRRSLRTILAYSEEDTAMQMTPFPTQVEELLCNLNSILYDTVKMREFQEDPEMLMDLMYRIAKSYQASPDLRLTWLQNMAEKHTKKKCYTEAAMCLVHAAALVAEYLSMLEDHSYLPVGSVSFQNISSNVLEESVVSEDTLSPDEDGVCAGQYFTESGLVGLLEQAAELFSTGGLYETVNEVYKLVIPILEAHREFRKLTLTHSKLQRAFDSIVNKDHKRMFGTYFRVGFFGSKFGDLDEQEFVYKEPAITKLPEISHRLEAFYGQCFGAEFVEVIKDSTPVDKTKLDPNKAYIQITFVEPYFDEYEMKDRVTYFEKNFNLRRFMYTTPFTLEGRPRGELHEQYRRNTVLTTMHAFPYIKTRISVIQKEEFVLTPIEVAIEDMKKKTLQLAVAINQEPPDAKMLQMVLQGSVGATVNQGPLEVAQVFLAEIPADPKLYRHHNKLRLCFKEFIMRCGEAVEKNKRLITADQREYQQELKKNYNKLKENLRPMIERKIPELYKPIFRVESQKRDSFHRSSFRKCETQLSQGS
UniProt Q8N5C7: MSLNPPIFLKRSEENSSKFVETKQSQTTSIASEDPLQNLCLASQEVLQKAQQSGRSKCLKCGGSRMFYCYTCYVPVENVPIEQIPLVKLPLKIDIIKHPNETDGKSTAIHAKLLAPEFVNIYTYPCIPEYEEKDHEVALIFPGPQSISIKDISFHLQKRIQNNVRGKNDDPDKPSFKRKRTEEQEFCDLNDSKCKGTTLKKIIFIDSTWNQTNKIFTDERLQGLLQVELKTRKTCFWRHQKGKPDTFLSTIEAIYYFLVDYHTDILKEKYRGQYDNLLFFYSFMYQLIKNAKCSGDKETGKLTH
UniProt Q96BY6: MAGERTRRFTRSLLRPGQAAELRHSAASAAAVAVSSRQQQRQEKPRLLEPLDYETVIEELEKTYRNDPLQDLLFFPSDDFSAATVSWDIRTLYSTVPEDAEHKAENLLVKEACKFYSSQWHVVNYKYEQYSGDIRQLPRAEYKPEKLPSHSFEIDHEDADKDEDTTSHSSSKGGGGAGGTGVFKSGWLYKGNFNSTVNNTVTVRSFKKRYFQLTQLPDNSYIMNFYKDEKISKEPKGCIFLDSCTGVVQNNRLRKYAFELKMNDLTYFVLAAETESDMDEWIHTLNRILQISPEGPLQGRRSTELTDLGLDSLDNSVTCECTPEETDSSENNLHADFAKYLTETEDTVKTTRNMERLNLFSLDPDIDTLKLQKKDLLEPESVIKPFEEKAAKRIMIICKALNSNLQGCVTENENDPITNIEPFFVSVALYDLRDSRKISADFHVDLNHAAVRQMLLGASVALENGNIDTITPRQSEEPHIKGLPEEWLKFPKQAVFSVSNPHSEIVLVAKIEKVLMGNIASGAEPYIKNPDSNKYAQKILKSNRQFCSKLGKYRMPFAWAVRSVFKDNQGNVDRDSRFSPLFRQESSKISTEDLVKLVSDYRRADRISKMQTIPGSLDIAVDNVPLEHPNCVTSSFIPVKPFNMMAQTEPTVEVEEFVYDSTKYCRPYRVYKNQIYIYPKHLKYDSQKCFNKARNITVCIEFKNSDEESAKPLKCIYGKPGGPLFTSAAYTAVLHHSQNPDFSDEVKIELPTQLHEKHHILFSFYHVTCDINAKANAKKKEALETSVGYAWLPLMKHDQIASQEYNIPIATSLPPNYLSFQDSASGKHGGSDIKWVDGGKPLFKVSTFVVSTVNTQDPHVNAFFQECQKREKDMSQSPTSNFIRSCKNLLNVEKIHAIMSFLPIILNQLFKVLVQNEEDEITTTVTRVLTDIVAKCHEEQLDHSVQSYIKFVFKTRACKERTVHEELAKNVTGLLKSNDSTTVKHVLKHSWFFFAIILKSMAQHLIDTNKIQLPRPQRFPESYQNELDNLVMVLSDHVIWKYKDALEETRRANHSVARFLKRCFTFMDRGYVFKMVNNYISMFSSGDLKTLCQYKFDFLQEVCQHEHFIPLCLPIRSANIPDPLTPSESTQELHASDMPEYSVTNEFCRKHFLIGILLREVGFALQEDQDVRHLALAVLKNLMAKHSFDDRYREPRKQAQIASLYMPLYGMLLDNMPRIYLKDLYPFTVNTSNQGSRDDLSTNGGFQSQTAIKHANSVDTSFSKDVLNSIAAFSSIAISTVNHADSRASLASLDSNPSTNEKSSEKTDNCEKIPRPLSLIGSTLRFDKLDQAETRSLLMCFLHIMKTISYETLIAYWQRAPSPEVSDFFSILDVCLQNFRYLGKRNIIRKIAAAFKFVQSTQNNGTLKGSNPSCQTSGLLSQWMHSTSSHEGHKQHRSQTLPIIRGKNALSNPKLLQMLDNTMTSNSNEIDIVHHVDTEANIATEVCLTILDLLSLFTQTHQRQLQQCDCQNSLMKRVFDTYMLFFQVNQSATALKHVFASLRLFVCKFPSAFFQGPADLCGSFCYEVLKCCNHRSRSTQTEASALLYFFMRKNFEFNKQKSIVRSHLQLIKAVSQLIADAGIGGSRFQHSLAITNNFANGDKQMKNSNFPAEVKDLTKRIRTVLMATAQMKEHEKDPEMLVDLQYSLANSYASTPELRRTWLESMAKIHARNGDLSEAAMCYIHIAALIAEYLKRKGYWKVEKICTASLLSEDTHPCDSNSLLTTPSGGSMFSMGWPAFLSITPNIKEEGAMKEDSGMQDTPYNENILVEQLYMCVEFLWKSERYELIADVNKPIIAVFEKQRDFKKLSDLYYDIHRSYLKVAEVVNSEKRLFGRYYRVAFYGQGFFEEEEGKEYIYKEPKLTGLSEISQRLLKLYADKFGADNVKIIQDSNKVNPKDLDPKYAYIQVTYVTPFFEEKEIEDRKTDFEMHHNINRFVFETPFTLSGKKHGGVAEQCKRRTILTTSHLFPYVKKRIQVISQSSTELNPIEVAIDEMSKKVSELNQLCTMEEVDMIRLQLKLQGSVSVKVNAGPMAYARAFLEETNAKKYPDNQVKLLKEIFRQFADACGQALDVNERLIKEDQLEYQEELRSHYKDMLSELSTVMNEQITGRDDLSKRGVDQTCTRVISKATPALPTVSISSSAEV
UniProt Q9NX74: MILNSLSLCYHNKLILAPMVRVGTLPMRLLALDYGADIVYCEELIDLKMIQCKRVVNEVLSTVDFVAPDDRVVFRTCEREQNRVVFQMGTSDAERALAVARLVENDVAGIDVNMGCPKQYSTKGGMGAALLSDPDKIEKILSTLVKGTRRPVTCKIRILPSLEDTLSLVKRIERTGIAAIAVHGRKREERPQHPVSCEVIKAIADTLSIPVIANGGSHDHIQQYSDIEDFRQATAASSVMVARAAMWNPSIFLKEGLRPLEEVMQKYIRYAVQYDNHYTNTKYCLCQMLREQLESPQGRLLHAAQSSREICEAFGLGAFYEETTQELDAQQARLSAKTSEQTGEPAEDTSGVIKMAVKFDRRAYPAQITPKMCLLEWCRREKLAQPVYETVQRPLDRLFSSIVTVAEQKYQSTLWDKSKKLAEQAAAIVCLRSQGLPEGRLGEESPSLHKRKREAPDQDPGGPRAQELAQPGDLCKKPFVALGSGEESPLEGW
UniProt P60981: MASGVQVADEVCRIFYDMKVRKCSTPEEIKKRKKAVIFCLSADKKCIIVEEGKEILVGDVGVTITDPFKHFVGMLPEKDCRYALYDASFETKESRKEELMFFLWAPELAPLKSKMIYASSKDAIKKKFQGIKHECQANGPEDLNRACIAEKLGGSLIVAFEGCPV
UniProt Q9H3H5: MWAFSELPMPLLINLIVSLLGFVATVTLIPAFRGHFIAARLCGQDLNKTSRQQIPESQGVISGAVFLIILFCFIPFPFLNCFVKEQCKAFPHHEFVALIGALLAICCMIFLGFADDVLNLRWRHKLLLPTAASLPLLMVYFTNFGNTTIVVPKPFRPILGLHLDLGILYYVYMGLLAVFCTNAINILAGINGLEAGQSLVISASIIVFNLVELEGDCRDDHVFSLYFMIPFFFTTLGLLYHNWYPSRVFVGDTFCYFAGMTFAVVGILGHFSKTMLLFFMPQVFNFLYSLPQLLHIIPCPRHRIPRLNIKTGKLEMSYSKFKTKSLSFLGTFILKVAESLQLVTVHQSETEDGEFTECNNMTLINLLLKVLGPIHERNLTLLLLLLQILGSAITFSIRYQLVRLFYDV
UniProt Q99956: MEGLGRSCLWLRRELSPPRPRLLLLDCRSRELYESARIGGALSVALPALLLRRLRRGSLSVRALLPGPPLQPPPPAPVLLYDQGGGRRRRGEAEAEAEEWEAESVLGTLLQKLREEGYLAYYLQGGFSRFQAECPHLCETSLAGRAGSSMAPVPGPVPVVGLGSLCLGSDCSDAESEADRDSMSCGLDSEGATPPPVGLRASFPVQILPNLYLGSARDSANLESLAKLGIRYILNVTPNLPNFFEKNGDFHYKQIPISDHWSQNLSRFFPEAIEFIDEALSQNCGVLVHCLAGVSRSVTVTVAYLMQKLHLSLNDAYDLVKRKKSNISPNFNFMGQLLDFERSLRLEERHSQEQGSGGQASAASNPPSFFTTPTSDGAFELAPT
UniProt Q6P1R4: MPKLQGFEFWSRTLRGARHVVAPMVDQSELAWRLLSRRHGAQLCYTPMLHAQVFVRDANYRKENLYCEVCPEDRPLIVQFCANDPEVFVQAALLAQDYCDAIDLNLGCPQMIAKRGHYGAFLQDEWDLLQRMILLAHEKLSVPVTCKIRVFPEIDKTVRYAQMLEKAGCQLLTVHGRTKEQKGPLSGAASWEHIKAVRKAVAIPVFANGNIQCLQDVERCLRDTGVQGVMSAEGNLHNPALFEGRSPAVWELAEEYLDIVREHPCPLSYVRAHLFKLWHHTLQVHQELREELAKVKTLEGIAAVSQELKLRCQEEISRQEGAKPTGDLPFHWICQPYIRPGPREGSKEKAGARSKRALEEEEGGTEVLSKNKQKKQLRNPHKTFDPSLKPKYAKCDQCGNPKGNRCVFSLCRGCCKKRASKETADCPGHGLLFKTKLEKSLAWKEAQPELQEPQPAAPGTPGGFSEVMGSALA

Compound: Cc1cc(ccc1-c1ccccc1)C(=O)N1CCCN(CC1)C(=O)CCl [compound 10]
Test: probe-labelled cysteine peptide fold change vs DMSO (competition) (log2 fold change); higher = less target engagement (more negative = stronger competition)
Conditions: THP-1, incubation time: 4 h
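Further: competitive profiling in live THP-1 cells: cysteine peptides tagged with an iodoacetamide desthiobiotin (IA-DTB) probe, intensity after compound treatment relative to DMSO-treated cells.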

## DOCK8_Q8NF50_121_TLQPSLPEEGVELDPHVRDCVQTYIR (UniProt Q8NF50)
10 µM
  probe-labelled cysteine peptide fold change: -0.0921
50 µM
  probe-labelled cysteine peptide fold change: -0.301

## DTWD1_Q8N5C7_126_LLAPEFVNIYTYPCIPEYEEK (UniProt Q8N5C7)
10 µM
  probe-labelled cysteine peptide fold change: 0.162
50 µM
  probe-labelled cysteine peptide fold change: -0.0256

## DYNC1LI2_O43237_231_RGPLTSGSDEENVALPLGDNVLTHNLGIPVLVVCTK (UniProt O43237)
10 µM
  probe-labelled cysteine peptide fold change: 0.661
50 µM
  probe-labelled cysteine peptide fold change: 0.157

## EBNA1BP2_Q99848_56_QCLAEFK (UniProt Q99848)
10 µM
  probe-labelled cysteine peptide fold change: 0.241
50 µM
  probe-labelled cysteine peptide fold change: 0.121

## DUS3L_Q96G46_162_CVLFETFGR (UniProt Q96G46)
10 µM
  probe-labelled cysteine peptide fold change: -0.023
50 µM
  probe-labelled cysteine peptide fold change: -0.146

## DPP9_Q86TI2_184_TQCSGPR (UniProt Q86TI2)
10 µM
  probe-labelled cysteine peptide fold change: -0.198
50 µM
  probe-labelled cysteine peptide fold change: -0.0818

## DYNC1H1_Q14204_2076_LCDEQLSSQSHYDFGLR (UniProt Q14204)
10 µM
  probe-labelled cysteine peptide fold change: 0.000184
50 µM
  probe-labelled cysteine peptide fold change: 0.106

## DNPEP_Q9ULA0_413_NDTPCGTTIGPILASR (UniProt Q9ULA0)
10 µM
  probe-labelled cysteine peptide fold change: 0.0819
50 µM
  probe-labelled cysteine peptide fold change: 0.497

## DYNC1H1_Q14204_4644_GVAVLCTE (UniProt Q14204)
10 µM
  probe-labelled cysteine peptide fold change: -0.185
50 µM
  probe-labelled cysteine peptide fold change: 0.0749

## DOCK8_Q8NF50_305_ISENFHCDLNSDQFK (UniProt Q8NF50)
10 µM
  probe-labelled cysteine peptide fold change: -0.102
50 µM
  probe-labelled cysteine peptide fold change: -0.109

## DOCK10_Q96BY6_1112_FDFLQEVCQHEHFIPLCLPIR (UniProt Q96BY6)
10 µM
  probe-labelled cysteine peptide fold change: -0.0803
50 µM
  probe-labelled cysteine peptide fold change: 0.0418

## DUS2_Q9NX74_475_AQELAQPGDLCK (UniProt Q9NX74)
10 µM
  probe-labelled cysteine peptide fold change: -0.295
50 µM
  probe-labelled cysteine peptide fold change: -0.269

## DYNC1H1_Q14204_2663_WLVLFCDEINLPDMDK (UniProt Q14204)
10 µM
  probe-labelled cysteine peptide fold change: 0.0525
50 µM
  probe-labelled cysteine peptide fold change: 0.0766

## DOCK8_Q8NF50_1471_VLVNSLNCDQSTTYLTHCFATLR (UniProt Q8NF50)
10 µM
  probe-labelled cysteine peptide fold change: 0.122
50 µM
  probe-labelled cysteine peptide fold change: 0.137

## DOCK2_Q92608_1203_MSCTVNLLNFYK (UniProt Q92608)
10 µM
  probe-labelled cysteine peptide fold change: -0.0626
50 µM
  probe-labelled cysteine peptide fold change: 0.0461

## DSTN_P60981_39_AVIFCLSADKK (UniProt P60981)
10 µM
  probe-labelled cysteine peptide fold change: -0.0188
50 µM
  probe-labelled cysteine peptide fold change: -0.319

## ECD_O95905_211_AHCFLPAGIVAVLK (UniProt O95905)
10 µM
  probe-labelled cysteine peptide fold change: -0.359
50 µM
  probe-labelled cysteine peptide fold change: 0.219

## DYNC1H1_Q14204_3573_WQASSLPADDLCTENAIMLK (UniProt Q14204)
10 µM
  probe-labelled cysteine peptide fold change: -0.173
50 µM
  probe-labelled cysteine peptide fold change: 0.175

## DSCR3_O14972_137_TCEFIVHSAPQK (UniProt O14972)
10 µM
  probe-labelled cysteine peptide fold change: 0.229
50 µM
  probe-labelled cysteine peptide fold change: 0.202

## DOK3_Q7L591_402_ASGPPGNEHLYENLCVLEASPTLHGGEPEPHEGPGSR (UniProt Q7L591)
10 µM
  probe-labelled cysteine peptide fold change: -0.122
50 µM
  probe-labelled cysteine peptide fold change: -0.541

## DYNC1LI1_Q9Y6G9_247_CDAISVLEK (UniProt Q9Y6G9)
10 µM
  probe-labelled cysteine peptide fold change: 0.288
50 µM
  probe-labelled cysteine peptide fold change: -0.0168

## DUSP3_P51452_171_EIGPNDGFLAQLCQLNDR (UniProt P51452)
10 µM
  probe-labelled cysteine peptide fold change: -0.157
50 µM
  probe-labelled cysteine peptide fold change: 0.139

## DTX3L_Q8TDB6_159_AYITTLCPSIR (UniProt Q8TDB6)
10 µM
  probe-labelled cysteine peptide fold change: -0.296
50 µM
  probe-labelled cysteine peptide fold change: -0.132

## DTX3L_Q8TDB6_219_DSCISPSEPETK (UniProt Q8TDB6)
10 µM
  probe-labelled cysteine peptide fold change: -0.446
50 µM
  probe-labelled cysteine peptide fold change: -0.672

## DPAGT1_Q9H3H5_42_LCGQDLNK (UniProt Q9H3H5)
10 µM
  probe-labelled cysteine peptide fold change: -0.0148
50 µM
  probe-labelled cysteine peptide fold change: 0.062

## DPP9_Q86TI2_225_LTFCHQGLSNVLDDPK (UniProt Q86TI2)
10 µM
  probe-labelled cysteine peptide fold change: 0.0281
50 µM
  probe-labelled cysteine peptide fold change: 0.101

## DOCK8_Q8NF50_197_GPVTACDFDLR (UniProt Q8NF50)
10 µM
  probe-labelled cysteine peptide fold change: -0.286
50 µM
  probe-labelled cysteine peptide fold change: -0.313

## DOK3_Q7L591_493_GPAPCDRP (UniProt Q7L591)
10 µM
  probe-labelled cysteine peptide fold change: -0.0347
50 µM
  probe-labelled cysteine peptide fold change: 0.123

## DOCK10_Q96BY6_2047_KVSELNQLCTMEEVDMIR (UniProt Q96BY6)
10 µM
  probe-labelled cysteine peptide fold change: -0.19
50 µM
  probe-labelled cysteine peptide fold change: 0.00399

## DOP1B_Q9Y3R5_70_LAQCLHPALPSGVHLK (UniProt Q9Y3R5)
10 µM
  probe-labelled cysteine peptide fold change: 0.232
50 µM
  probe-labelled cysteine peptide fold change: 0.217

## DOCK8_Q8NF50_170_QTFESETLECSEPAAQAGPR (UniProt Q8NF50)
10 µM
  probe-labelled cysteine peptide fold change: -0.095
50 µM
  probe-labelled cysteine peptide fold change: -0.363

## DTX3L_Q8TDB6_446_QVDLSVHAYASFIDAFQHASCQLMR (UniProt Q8TDB6)
10 µM
  probe-labelled cysteine peptide fold change: 0.0901
50 µM
  probe-labelled cysteine peptide fold change: 0.505

## DPP9_Q86TI2_550_LTTPGFSHSCSMSQNFDMFVSHYSSVSTPPCVHVYK (UniProt Q86TI2)
10 µM
  probe-labelled cysteine peptide fold change: 0.422
50 µM
  probe-labelled cysteine peptide fold change: 0.456

## DOK3_Q7L591_323_LPELTRPQPCPLPR (UniProt Q7L591)
10 µM
  probe-labelled cysteine peptide fold change: 0.54
50 µM
  probe-labelled cysteine peptide fold change: 0.45

## DUSP9_Q99956_27_LLLLDCR (UniProt Q99956)
10 µM
  probe-labelled cysteine peptide fold change: -0.0107
50 µM
  probe-labelled cysteine peptide fold change: -0.265

## DOK3_Q7L591_282_CHSGEGLFAFSTPCAPDLCR (UniProt Q7L591)
10 µM
  probe-labelled cysteine peptide fold change: 0.237
50 µM
  probe-labelled cysteine peptide fold change: -0.296

## DPYSL2_Q16555_132+133_SCCDYSLHVDISEWHK (UniProt Q16555)
10 µM
  probe-labelled cysteine peptide fold change: 0.118
50 µM
  probe-labelled cysteine peptide fold change: -0.665

## DUS1L_Q6P1R4_169_AGCQLLTVHGR (UniProt Q6P1R4)
10 µM
  probe-labelled cysteine peptide fold change: -0.066
50 µM
  probe-labelled cysteine peptide fold change: -0.0896
